Over roughly 33,000 sequences, “E-score (-0.5 to 0.5)” has its median near -0.0014; the highest 2% begin near 0.25. The list shows a part of the results.
target: T1, Cad1 (UniProt P24813); experiment: PBM E-score (8-mer binding enrichment) (E-score (-0.5 to 0.5)); higher = stronger / more preferred TF binding; settings: protein concentration: 100 nM; construct: GST-full length
T1 sequence: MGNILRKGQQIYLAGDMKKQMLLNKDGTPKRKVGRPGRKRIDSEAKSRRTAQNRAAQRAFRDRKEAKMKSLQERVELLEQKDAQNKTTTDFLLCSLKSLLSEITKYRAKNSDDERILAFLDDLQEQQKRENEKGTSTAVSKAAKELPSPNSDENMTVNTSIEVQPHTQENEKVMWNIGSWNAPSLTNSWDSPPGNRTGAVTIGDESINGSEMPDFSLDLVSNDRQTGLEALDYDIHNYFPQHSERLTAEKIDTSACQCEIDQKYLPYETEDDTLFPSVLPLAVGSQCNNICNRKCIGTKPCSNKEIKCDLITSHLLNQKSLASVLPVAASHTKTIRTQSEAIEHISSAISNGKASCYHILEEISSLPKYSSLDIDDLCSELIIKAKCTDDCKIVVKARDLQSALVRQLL
In short: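 Each ungapped eight-base word and its reverse complement, pooled, received an E-score from the Universal PBM Analysis Suite. Underlying scans, normalised with masliner, recorded fluorescent anti-GST bound to GST-tagged yeast transcription factors. These were applied at about 100-200 nM to universal all-10-mer Agilent arrays double-stranded by primer extension.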

Sequence | PBM E-score
GCCGATGA | 0.0997
GGCTTCAC | -0.141
ATGCCCAA | -0.109
ACGCGATC | 0.0805
CATATAGA | 0.0853
ATCTGGTG | 0.0268
CTTCTCGA | 0.0254
CTAAACGA | -0.0962
AACGCCGG | -0.0998
GGAAAGGA | -0.162
AAGTGTGT | -0.0303
GACCTAAC | 0.181
ATACCGAC | -0.186
CCAACTGG | 0.025
ATTAACTA | -0.00319
ACTCGTAC | -0.152
GGCTAACA | 0.0256
GCTGAGTA | 0.17
ATATACCA | -0.00731
ATTAATGG | 0.239
GGATCATA | -0.175
TAGGTGGA | -0.0227
CCATATAG | -1e-05
CGACCAAA | 0.199
CGTATGGA | -0.0745

Reformatted in CSV form: part of the list above
Sequence,PBM E-score
GCCGATGA,0.0997
GGCTTCAC,-0.141
ATGCCCAA,-0.109

Continued.

Sequence | PBM E-score
AACTAGTT | 0.201
GTTCTCCA | 0.00521
AAATATAC | -0.0915
AGTGGCTG | -0.156
AGGCCTGA | 0.106
CACACTTA | 0.0458
GCAACGTA | 0.0255
GAGGAGTA | -0.168
AGCACTAT | -0.0481
ATCGAATG | 0.02
CTATGTAA | 0.0659
CGATCCAA | -0.0601
AATAACGC | -0.0922
ACAACATC | 0.0648
TATATTGA | 0.146
ATCCGATC | 0.16
GCTTATCA | 0.0614
CTAAAAGA | -0.0602
CCTAAGTA | -0.0327
AACGGCCT | 0.0329
CCGGTGTA | -0.0814
AGTTAGAA | 0.00448
AGTCTATC | -0.059
CCCTTAAG | -0.0886
GGTGAACC | -0.0269

Sequence | PBM E-score
CTCGTGGC | -0.138
CCCCGATA | -0.115
ACTGCACG | -0.039
CGCTCGTC | -0.0724
CGCTCCAA | 0.0125
ACGTTTCC | -0.0254
CGTCCGCA | -0.0396
GATGATTA | 0.126
TCGAGGAA | -0.132
CCCCGAGA | -0.138
GCCTACAA | 0.00887
AACACTTG | -0.0256
GTTCTAAA | -0.0174
CGGAGTTA | 0.0713
AGAGAGGG | -0.23
CATGCAGC | 0.0258
GGAGTGCC | -0.0729
AGAAGCTC | -0.0135
CATAAGAG | 0.184
AACGGTGG | -0.179
ACCGGGCA | -0.197
ATGCCTCG | 0.034
AAAGCTGC | 0.0487
ATCTTCCC | -0.129
CCAAGATC | 0.0415

Sequence | PBM E-score
GTCAATCA | -0.138
AAATGTCT | 0.0517
AATGAGCC | -0.164
GCCCGACA | 0.0828
ACGATGAC | 0.0549
CGCGTCCG | 0.0408
AACCGATG | -0.108
GGGATAAC | -0.0389
AATAGGCT | -0.0189
AAGACCCG | -0.103
CAAATGCC | -0.0328
CCGAGCGA | 0.139
CCTGTTGC | -0.00892
GTCGGCAA | -0.0595
GGGTCTCA | -0.204
CAGCGCCC | -0.15
CTAATTGC | 0.113
CGATTTGA | 0.1
GACCCCGA | -0.0428
GGGTGGAC | -0.0138
AGCTGCAA | -0.0573
ACCGACTA | -0.195
GGGCCTCA | -0.0631
GGAGCTTA | -0.171
ACTTTATC | 0.0979

Sequence | PBM E-score
GAACTCCC | -0.0748
GGGCTAGA | -0.00541
AATGCTAT | 0.156
AAACCGTC | 0.0249
TACTTCGA | 0.112
ACGTAAAC | -0.148
TCGAAAAA | 0.16
AGGCATGA | -0.191
ACTCCTCC | -0.204
TCTCCTAA | -0.0727
AAGCCTCA | -0.227
GGTTCCAA | 0.0424
ACAACTAG | -0.208
AACAGCGC | 0.0746
AGGTCGAT | 0.0315
GGCTTCCC | -0.0469
GATACGAC | -0.0168
ATCCGCCA | 0.0883
GATATCGA | 0.116
GAACCAAC | 0.125
ACTCTTAG | -0.0625
GATCTCCA | 0.0144
AAGAATCT | -0.159
GACACCCA | -0.0438
GGGCCAGA | -0.22

Sequence | PBM E-score
ACGTTCAT | -0.0396
AAGTCACA | -0.0461
CAAACGCC | -0.0333
CAGACGAC | -0.148
ACGTTAGA | 0.0379
CCCAACAG | -0.0812
GTCACGAC | 0.0662
ATAACCAC | 0.002
ATTGGAGC | 0.187
AAATCAGT | -0.00821
CGCCGTTA | -0.0315
GGAATGAC | -0.179
GGTTCCCA | -0.137
CCTCCACA | 0.0108
CAAGTTGC | 0.0548
GAACAGGA | -0.125
ATGTCTAA | 0.0799
AGTGATAC | 0.0976
AGTACCTC | -0.046
GTTTAACA | 0.00608
GTGCCTTA | -0.0832
CACTGAGC | -0.0366
GTGAGAAC | -0.0529
AGCAACCC | -0.118
ATTAATTC | 0.304

Sequence | PBM E-score
AGGGATCA | -0.0797
CCCTCAAA | -0.148
GTAAAGAC | 0.0424
AACGGGGT | -0.13
AAAGGACA | -0.0819
CGGAAACC | -0.0235
ACAAATGC | 0.255
AGAAAACA | 0.219
TAGCCGCA | -0.215
GTCATGGA | -0.17
GACGGTAA | 0.0171
AGACGTCG | -0.0866
CACCTATA | -0.124
ATCGGCCG | -0.0628
CTCCAATA | 0.142
CAATTAGG | 0.0689
ACAAAGGA | 0.0401
ATGATTAA | 0.32
TCACACGA | 0.123
ACAGACTG | -0.00999
ACATTCGT | 0.0444
AGTATCGG | 0.0469

Reprinted at random: 2 records from the list.
Sequence | PBM E-score
CAATTAGG | 0.0689
ACATTCGT | 0.0444
